pKd: −log10 of the molar value. No signal at the amounts used counts as a negative. The exact form of at least one protein or probe is not confirmed.
Target: PTBP1 (hsPTBP1) (Homo sapiens) (UniProt P26599)
Assay: EMSA
Conditions: EMSA in RBB: 10 mM sodium cacodylate pH 7.0, 100 mM NaCl, 1 mM MgCl2, 1 mM DTT, 0.1 ug/uL BSA, 0.1 ug/uL yeast tRNA, 0.4 U/uL RNasin, 1 U/uL heparin; recombinant protein; residues 1-557; protein details: 6xHis (pET21A+); label: fluorescent; probe letters rebuilt from the primers and the genome

Chains of the proteins cited; added tags and fusions are not shown. Lines headed by an entry give the natural chain unless they say otherwise; changes in a name come on top.
UniProt P26599: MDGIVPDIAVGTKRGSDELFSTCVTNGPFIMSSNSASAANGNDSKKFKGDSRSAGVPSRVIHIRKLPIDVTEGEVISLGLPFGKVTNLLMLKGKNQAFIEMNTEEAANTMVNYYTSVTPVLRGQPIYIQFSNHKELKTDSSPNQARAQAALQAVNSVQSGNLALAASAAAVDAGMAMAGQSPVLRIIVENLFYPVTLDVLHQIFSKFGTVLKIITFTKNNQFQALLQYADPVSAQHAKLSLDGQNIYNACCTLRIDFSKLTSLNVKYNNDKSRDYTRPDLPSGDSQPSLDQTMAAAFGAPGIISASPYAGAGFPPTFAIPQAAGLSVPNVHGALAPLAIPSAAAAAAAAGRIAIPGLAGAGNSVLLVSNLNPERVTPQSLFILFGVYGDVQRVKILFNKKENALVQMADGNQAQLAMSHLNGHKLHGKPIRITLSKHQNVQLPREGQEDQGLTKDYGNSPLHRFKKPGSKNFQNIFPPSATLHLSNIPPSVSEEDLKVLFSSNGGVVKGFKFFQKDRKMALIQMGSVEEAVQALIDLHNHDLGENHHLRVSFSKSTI

| Sequence | pKd | binding result |
| --- | --- | --- |
| GGGCCUCACACUUAGGCUAGACAAGAACUGUAAUGAGGGAUAAUAAUUGACCAGAUGACAUUUUACAAAAGAUUCAAGUUUCUUCUUCUUCAUUCCUUUUUUUUAAUUGAGUCCAGUAAACCGUAUGCGAAGCACUGUGUUAAAUACCUUGAUCUACCUUAUCUCAGUGGUCCUCGACUGAAUCGCCUUGUGUAACUUAUUAAAAAUAUGUUUUCCUGGAUGCCAGCUUGUGUUGGAAGGGAGCCAGGAAAAU [FRAGT4] | 6.82 | – |
| GGGGCCUUAUCCCAUUUCUUCCUCAUAAAAAUCUUGAGAAGUCUCAGUAAUUGUAAAAGAAGAUAAAUUGGAAGAACAAAAAUAGCUUUUCAGGCACUCUAUUCUGUCUAUACUAUGAUCAUGAAGGUAUAAGGAGUGUGUUUCUGAAUUCAAUUGAUUUGAAUAGAUGAAGUCCUAGGCCUUCAUUUUUUCUUUUCUCUGGUUCCUCUCUGCAGUCUCCUUUCAGCCUGCUUCA [FRAGT6] | 7.22 | – |
| GGGGUUGCUUUUGUGGAUGUGUGAUUUUAAUUUUCAAUAAACUUUUGCAUCUUGGUUUAUCUUGCAGUUUUUUUGUUUCUGUCUCUCUCACUUUUUUUCCACUAAAUACUAGAAUAUUCUCAUGUAAGUGCUUGAAGUAGCAUGUGUAGGUCU [CPA2] | 7.22 | – |
| GGGUAUUUCUGGCAUCCUCGUGGUGUAAAUAAUUUCUUAAUUAUGCAAAAAAUUGCUUUCUUGGGUUUGAUAUAUGCAUUUAUAGGCCGAGUUUUUUACUCAAAGGAUUAAGGUAUUUAUCCAUCUCAAUCUGGGAAUAUCCAAAAUACUCAUUAAACAGUUCUUUGUAAAUGCCUGAUGCCACAGGCCCCAUUCUGAUAAUAUCAUAUUUCUCUAUACCUCACACUUAGGCUAGACAAGAAC [FRAGT3] | 6.82 | – |
| GGGUGGAAGGGAGCCAGGAAAAUGCAUUUUUAUAAGUUUCACAAGUGAUUCUGAUGUUUAUUUCUGGUUAACUACUAUAGCCUUAUCCCAUUUCUUCCUCAUAAAAAUCUUGAGAAGUCUCAGUAAUUGUAAAAGAAGAUAAAUUGGAAGAACAAAAAUAGCUUUUCAGGCACUCUAUUCUGU [FRAGT5] | – | no binding |

— paper PMC10035508
